Source: patent publication US20020088015A1 (published 2002)

By UniProt entry, the sequences of proteins in these tests, tags left out.
UniProt P25490, whole entry: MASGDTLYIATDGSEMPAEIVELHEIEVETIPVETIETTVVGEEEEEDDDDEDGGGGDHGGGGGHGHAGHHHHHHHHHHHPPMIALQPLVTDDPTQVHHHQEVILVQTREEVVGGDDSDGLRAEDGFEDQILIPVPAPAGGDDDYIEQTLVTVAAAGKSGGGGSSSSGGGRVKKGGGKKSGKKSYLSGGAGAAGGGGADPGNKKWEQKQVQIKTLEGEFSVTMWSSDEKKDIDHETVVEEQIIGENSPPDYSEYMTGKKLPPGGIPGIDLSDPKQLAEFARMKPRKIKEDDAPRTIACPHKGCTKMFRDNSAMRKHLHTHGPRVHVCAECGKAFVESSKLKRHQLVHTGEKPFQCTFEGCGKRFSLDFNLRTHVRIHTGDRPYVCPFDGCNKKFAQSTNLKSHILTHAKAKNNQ

Target: in vitro transcribed/translated ^35S-labeled YY1 (pGem7zf(+)-YY1) (UniProt P25490 1-414, ^35S-methionine labeled)
Assay: GST affinity matrix assay
Procedure: All GST fusion proteins were purified as described (Kaelin Jr., W. G. et al. (1991) Cell 64:521-531) and the yield of each protein was determined by SDS-PAGE analysis and Coomassie blue staining. GST proteins bound to glutathione-agarose beads (Sigma, St. Louis, Mo.) were washed twice in NET-50 (20 mM Tris pH8,0, 1 mM EDTA, 50 mM NaCl) for 15 min at room temperature and were incubated in 200 μl binding buffer [25 mM HEPES pH7.5, 12.5 mM MgCl₂, 20% glycerol, 0.1%NP-40, 150 mM KCl, 1 mM dithiothreitol (DTT), 150 μg/ml bovine serum albumin (BSA), 200 μg per ml ethidium bromide (EtBr)] for 10 min at room temperature. In vitro transcription/translation reactions (Promega, Madison, Wis.) containing ³⁵S-methionine (1175 Ci/mmol) were programmed with pSP64-WT1 or pGem7zf(+)-YY1 and 5 μl was incubated with immobilized GST-fusion proteins for 1 hr at room temperature as indicated. The beads were washed five times with 1 ml washing buffer (20 mM Tris pH8.0, 100 mM NaCl, 1 mM EDTA, 0.5% NP-40, 200 μg/ml EtBr). Bound proteins were eluted with Laemmli sample buffer, separated on a 10% SDS-polyacrylamide gel which was soaked in the fluorographic solution “Amplify” purchased from Amersham and visualized by fluorography. […]

- binding result: no binding
B1: GST-Ciao-1 (other)
chain: MKDSLVLLGRVPAHPDSRCWFLAWNPAGTLLASCGGDRRIRIWGTEGDSWICKSVLSEGHQRTVRKVAWSPCGNYLASASFDATTCIWKKNQDDFECVTTLEGHENEVKSVAWAPSGNLLATCSRDKSVWVWEVDEEDEYECVSVLNSHTQDVKHVVWHPSQELLASASYDDTVKLYREEEDDWVCCATLEGHESTVWSLAFDPSGQRLASCSDDRTVRIWRQYLPGNEQGVACSGSDPSWKCICTLSGFHSRTIYDIAWCQLTGALATACGDDAIRVFQEDPNSDPQQPTFSLTAHLHQAHSQDVNCVAWNPKEPGLLASCSDDGEVAFWKYQRPEGL
notes: not shown: glutathione-S-transferase from vector GEX-2TK
